PubChem BioAssay AID686943, Drosophila RNAi Screening Center – 2013
The screen tested about 23,000 reagents; below is an unselected part of those that have a named target and a result. 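Extra replicates exist only for a retested subset of genes; insulin dose and duration not given; both raised and lowered dpERK matter.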 Names joined by + are all predicted targets of the reagent. The record does not give: the amount of reagent, the time to read-out.

Assay: 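Knockdowns that increase or decrease active ERK after insulin receptor stimulation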 (primary screen)
Cell system: Drosophila S2R+ haemocyte-like cells expressing YFP-tagged ERK (Rolled)
Reagents: long dsRNA against Drosophila genes
Conditions: insulin stimulation versus unstimulated cells; dose and duration not given
Measurement: 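Per-plate z-scores of phospho-ERK immunostaining normalised to YFP-tagged ERK, measured with and without insulin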
Scale: replicate 1, z-score of dpERK with insulin and replicate 2, z-score of dpERK with insulin: higher = more active ERK per ERK-YFP after insulin; replicate 1, z-score of dpERK under basal conditions: higher = more basal active ERK per ERK-YFP; replicate 1, z-score of ERK-YFP with insulin: higher = more YFP-tagged ERK signal

predicted target | dsRNA | replicate 1, z-score of dpERK with insulin | replicate 2, z-score of dpERK with insulin | replicate 1, z-score of dpERK under basal conditions | replicate 1, z-score of ERK-YFP with insulin
Rpt5 (GeneID 42805) | DRSC16842 | -5.88 | -3 | -4.02 | 2.65
shrb (GeneID 35933) | DRSC07061 | -2.23 | -0.94 | -0.73 | 0.01
Sox14 (GeneID 37822) | DRSC04656 | -2.79 | -1.55 | -0.27 | 4.68
Gr22c (GeneID 117499) | DRSC22081 | 0.15 | -0.36 | 0.8 | -0.29
Dnz1 (GeneID 34503) | DRSC03317 | -0.41 | -0.64 | -1.09 | 0.59
daw (GeneID 33474) | DRSC00479 | 1.59 | 1.58 | -0.49 | -0.25
Tsp42Eg (GeneID 35616) | DRSC06112 | -0.49 | -0.11 | 0.4 | 0.35
CG10492 (GeneID 35177) | DRSC02064 | 0.15 | -0.21 | -1.38 | 0.95
CG15306 (GeneID 31961) | DRSC17993 | 0.34 | -0.52 | 0.88 | 0.51
CG15306 (GeneID 31961) | DRSC18240 | 0.6 | -1.64 | 1.64 | -0.06
CG13010 (GeneID 32643) | DRSC19529 | -1.3 | -0.72 | -0.22 | -0.5
Mdh2 (GeneID 42185) | DRSC16361 | -0.23 | 0 | 0.11 | 0.18
CG8562 (GeneID 38828) | DRSC10995 | -0.19 | 0.27 | 0.48 | -0.11
CG14495 (GeneID 37056) | DRSC06466 | 0.04 | 0.56 | 0.86 | 0.54
CG30392 (GeneID 246587) | DRSC22341 | 0.24 | -0.22 | -0.77 | 0.6
mTerf3 (GeneID 40279) | DRSC11759 | 0.75 | 0.2 | 0.64 | 0.19
CG10710 (GeneID 39525) | DRSC09784 | -0.13 | 0.75 | -0.03 | 0.09
Atg8a (GeneID 32001) | DRSC18024 | 1.94 | 0.05 | -0.31 | 0.53
Dcp-1 (GeneID 37729) | DRSC04609 | 0.31 | 0.23 | 0.39 | 0.97
CG9689 (GeneID 31922) | DRSC18440 | 1.07 | 0.65 | 0.41 | -0.56
Lsm11 (GeneID 36013) | DRSC06238 | 0.22 | -0.32 | 1.06 | -0.27
CG9624 (GeneID 41730) | DRSC16523 | 0.36 | -1.65 | 0.35 | 0.36
PH4alphaNE3 (GeneID 326114) | DRSC16541 | -1.53 | 0.21 | 0.42 | 0.38
COX7AL2 (GeneID 5740746) | DRSC00099 | 1.81 | 0.35 | -0.24 | -0.81

Targets above whose target name starts with S or s:
predicted target | dsRNA | replicate 1, z-score of dpERK with insulin | replicate 2, z-score of dpERK with insulin | replicate 1, z-score of dpERK under basal conditions | replicate 1, z-score of ERK-YFP with insulin
shrb (GeneID 35933) | DRSC07061 | -2.23 | -0.94 | -0.73 | 0.01
Sox14 (GeneID 37822) | DRSC04656 | -2.79 | -1.55 | -0.27 | 4.68

The results go on.
predicted target | dsRNA | replicate 1, z-score of dpERK with insulin | replicate 2, z-score of dpERK with insulin | replicate 1, z-score of dpERK under basal conditions | replicate 1, z-score of ERK-YFP with insulin
CG5084 (GeneID 37051) | DRSC06913 | -0.85 | -0.58 | 0.47 | 1.24
CG5498 (GeneID 40250) | DRSC11608 | 0.31 | 0.68 | 1 | 0.38
CG34231 (GeneID 5740811) | DRSC05323 | 0 | 0.59 | 0.22 | 0.25
Smurf (GeneID 36999) | DRSC07641 | 1.32 | 0.35 | -0.33 | -3.96
CheB53a (GeneID 3346205) | DRSC06625 | 0.07 | -0.37 | 1.31 | 0.3
krz (GeneID 53554) | DRSC16979 | -0.05 | -0.77 | 0.75 | -0.06
CG15239 (GeneID 31343) | DRSC17972 | 2.81 | 3.49 | 1.37 | -4.96
cid (GeneID 36495) | DRSC05429 | 0.48 | 0 | 0.72 | 0.14
cid (GeneID 36495) | DRSC07592 | 0.11 | -0.36 | 0.73 | 0.48
CG4199 (GeneID 31174) | DRSC18519 | 0.19 | -0.61 | -0.21 | 0.13
CG4199 (GeneID 31174) | DRSC21314 | -1.57 | -2.11 | 0.99 | 0.43
Cyt-c1 (GeneID 38612) | DRSC10447 | 0.56 | -0.24 | -0.69 | 0.23
CG43182 (GeneID 12798293) | DRSC17668 | -0.71 | -0.12 | -1.23 | -0.14
PGRP-LA (GeneID 39062) | DRSC10327 | 0.05 | -0.05 | -0.28 | 0.54
PGRP-LA (GeneID 39062) | DRSC10414 | 0.1 | -0.07 | -0.9 | -0.6
CG14572 (GeneID 40422) | DRSC11733 | 0.48 | -0.15 | -0.44 | -0.17
CG3270 (GeneID 35575) | DRSC04988 | 0.32 | 0.14 | 1.2 | 0.16
CG12814 (GeneID 41246) | DRSC14552 | -0.63 | -1.28 | -1.02 | -0.04
CG12814 (GeneID 41246) | DRSC14553 | -1.18 | -0.9 | 1.08 | -0.28
CG5623 (GeneID 41904) | DRSC15848 | 1.08 | 1.77 | -0.83 | -0.51
CG13690 (GeneID 33213) | DRSC00359 | -0.26 | -0.75 | -0.46 | -0.39
CG9040 (GeneID 39546) | DRSC11053 | -1.18 | -0.66 | -1.05 | 1.23
CRMP (GeneID 40675) | DRSC12073 | -1.03 | -0.06 | 0.79 | -0.36
CRMP (GeneID 40675) | DRSC12345 | -1.09 | -0.93 | -0.43 | 0.15
CG11369 (GeneID 31675) | DRSC17779 | 0.26 | 0.51 | -0.85 | 0.46
CG43439 + CG32388 | DRSC08861 | 0.26 | 0.44 | 0.02 | 0.61
mthl8 (GeneID 38013) | DRSC08211 | -0.07 | 0.18 | -0.36 | 0.4
mthl8 (GeneID 38013) | DRSC08311 | 0.12 | 0 | -0.89 | 0.63
CG10073 (GeneID 37225) | DRSC05961 | -0.07 | 0.57 | 0.16 | 0.53
shn (GeneID 36171) | DRSC05266 | -0.05 | 0 | 1.5 | -0.12
shn (GeneID 36171) | DRSC07681 | -4.2 | -4.02 | -0.07 | -1.34
CG31278 (GeneID 41282) | DRSC16051 | 0.28 | 0.17 | -0.27 | 0.2
CG7017 (GeneID 40213) | DRSC10762 | 1.12 | 0.73 | -1.26 | -0.43
